In publication PMC1716192, “A Plant-Derived Morphinan as a Novel Lead Compound Active against Malaria Liver Stages” (PLoS Medicine, 2006):

Tested on: P. yoelii (265 BY strain) hepatic stages
Experiment: In vitro assay for P. yoelii liver stage inhibition in primary mouse hepatocytes
Type: cell-based
Conditions: Plasmodium yoelii, Hepatocyte, 48 h
Protocol: P. yoelii (265 BY strain) and P. falciparum (NF 54 strain) sporozoites were obtained by dissection of infected Anopheles stephensi salivary glands. Primary mouse hepatocytes were isolated as previously described and seeded in eight-well Lab-Tek plastic chamber slides (VWR, Fontenay-sous-Bois, France) previously coated with rat-tail collagen I (BD Biosciences, Le Pont de Claix, France) at a density of 10^5 cells per well. […] Parasites were quantified on the last day of incubation. For the in vitro timing experiments, tazopsine treatment of P. yoelii and P. falciparum cultures was undertaken for different periods during the cultivation: 0 h to 3 h, 3 h to 24 h, or 24 h to 48 h after P. yoelii sporozoite inoculation (quantification at 48 h), or 0 h to 2 d, or 3 d to 5 d after P. falciparum sporozoite inoculation (quantification at 5 d). […] Parasite numbers were counted under a fluorescence microscope with a 25× light microscope objective.
IC50 and TC50 were calculated by nonlinear regression using four-parameter logistic curves on the SigmaPlot 10.0 software (http://www.systat.com). Each IC50 or TC50 is expressed as a mean between two independent experiments, followed by the standard error of the mean.

## CN1CC[C@]23c4c5ccc(O)c4O[C@H]2[C@@H](O)C=C[C@H]3[C@H]1C5 [morphine, reference compound]
  IC50: > 100 µM
